The assay can be described thus: qHTS Assay for Lipid Storage Modulators in Drosophila S3 Cells.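 For cell number change: cells counted by Cell Tracker Red CMTPX staining in the red channel.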 Conditions: BODIPY lipid droplet fluorescence, 18-24 h; for cell number change: measured here: cell count max response, cells fed with added oleic acid. The procedure, abridged:
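Laser-scanning cytometry quantifies lipid droplet accumulation (500–530 nm total intensity; droplet/cell object ratio) in oleic acid-fed (400 uM added) Drosophila S3 cells treated with a concentration series. 20 uM Triacsin C defined 100% inhibition.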

Setting [1] is: measured here: lipid fluorescence (Fed channel) AC50, cells fed with added oleic acid.
Where [2] appears, read: measured here: cell number channel AC50, cells fed with added oleic acid.

The other results are listed elsewhere or left out. The main result of the screen is listed elsewhere. These columns were measured beside it and carry no call. Most of these compounds were active or inconclusive in the main read-out, so they are no random draw. Potencies come from curve fits of mixed quality, noted in brackets.

In the case of `COC(=O)c1c(NC(=O)CSc2nnnn2-c2ccccc2)sc2c1CCC(C)C2` (stereo not drawn), the cell number change is -22.4%. In addition, the AC50 under setting [1] is 32.6 µM [falling, single point].
Regarding `CC1/C(=N/O)C(CN(C)C)C2CC1C2(C)C` (stereo not drawn), the cell number change is -12.4%.
Same read-out and setting: in the case of `COc1cc(C)c(NC(=O)C(=S)N2CCCC2)cc1C` it was 3.78%.
With `O=C(O)c1cccc(S(=O)(=O)Nc2cccc(S(=O)(=O)Nc3ccc(Br)cc3)c2)c1`, the cell number change is -0.771%.
As for `Cn1c(CNc2cccc(Cl)c2)nnc1SCC(=O)OC1CCCCC1`, the cell number change stood at 19.8%. In addition, the AC50 under setting [2] is 0.206 µM [falling, full curve].
As for `COc1ccc(-c2noc(-c3cccc(OC)c3OC)n2)cc1OC`, the cell number change is -2.63%. Besides, under setting [1], the AC50 is 0.00461 µM [falling, full curve, poor fit].
As to `CCOC(=O)c1cc(CC)sc1NC(=O)C1CC1`, the cell number change is -15.2%. In addition, the AC50 under setting [1] was 16.4 µM [rising, partial curve].
With `O=C1CN(C(=O)COC(=O)CNS(=O)(=O)c2ccccc2)c2ccccc2N1`, the cell number change was -21.7%. Besides, the AC50 under setting [1] was 8.2 µM [falling, partial curve].
Turning to `COc1ccccc1OCC(=O)NC1CC(C)(C)NC(C)(C)C1`, the cell number change is 6.58%. The half-maximal activity concentration (AC50) under setting [2] is 0.103 µM [rising, full curve, poor fit].
As to `CC(C)(C)C(=O)NC(=S)Nc1sc2c(c1C(N)=O)CCC2`, the AC50 under setting [1] is 0.00461 µM [rising, full curve, poor fit].
Consider `O=C(O)c1cccc(NC(=O)C2C3C=CC(C3)C2C(=O)OCC(F)(F)C(F)F)c1` (stereo not drawn), for which the cell number change is -2.83%. Moreover, under setting [1], the AC50 was 29.1 µM [falling, single point].
`O=C(O)Cc1csc(-c2cccc(F)c2)n1`: the cell number change was 1.4%. In addition, the half-maximal activity concentration (AC50) under setting [1] was 1.64 µM [falling, partial curve, poor fit].
Regarding `CCOC(=O)C1CCN(C(=O)c2cccc(S(=O)(=O)N3CCc4ccccc43)c2)CC1`, the cell number change was found to be 15.1%. In addition, under setting [2], the AC50 is 0.146 µM [falling, full curve, poor fit].
Turning to `Cc1cccc(C)c1OCCOC(=O)c1cccc(S(=O)(=O)N2CCOCC2)c1`, the cell number change is -22.5%. In addition, the AC50 under setting [1] was 4.61 µM [falling, full curve, poor fit].
As to `N#Cc1cn(-c2ccccc2)nc1-c1cc2ccccc2oc1=O`, the cell number change was -10.2%.
Regarding `Cc1cccc(CCN2CCN=C2Nc2ccccc2)c1`, the cell number change was -21.7%. Besides, under setting [1], the AC50 is 29.1 µM [rising, single point].
Consider `Cc1ccc(S(=O)(=O)N2CCN(c3ccc(C(F)(F)F)cc3[N+](=O)[O-])CC2)cc1`, for which the cell number change was -14.7%.
Turning to `CCN(CC)C(=O)CSc1nc(COc2ccccc2)nc2ccccc12`, the cell number change is -19%.
Take `COc1ccc(OC)c(N(CC(=O)Nc2ccccc2)S(=O)(=O)c2ccccc2)c1`: the cell number change was -23%.
With `O=C(O)c1cccc(S(=O)(=O)N2CCc3ccccc3C2)c1`, the cell number change is -8.66%. Further, the AC50 under setting [2] was 4.11 µM [falling, single point].
In the case of `CN(Cc1cccs1)C(=O)CN1CCN(S(=O)(=O)c2ccc3c(c2)OCCCO3)CC1`, the cell number change was -99.7%. Besides, the AC50 under setting [2] is 23.1 µM [falling, single point]. Moreover, the half-maximal activity concentration (AC50) under setting [1] is 1.84 µM [rising, partial curve, poor fit].
Regarding `Cc1noc(C)c1S(=O)(=O)N1CCC(C(=O)N2CCN(c3ccc(Cl)cc3)CC2)CC1`, the cell number change was -7.44%.
Turning to `CNc1cnn(-c2ccccc2)c(=O)c1Cl`, the cell number change is -18.2%. For the same compound, the AC50 under setting [1] was 5.17 µM [falling, full curve].
On to `CN(CC(=O)Nc1ccc2c(c1)OCO2)S(=O)(=O)c1ccc2c(c1)CCC(=O)N2`, for which the cell number change is 26%. The AC50 under setting [2] is 2.31 µM [rising, full curve, poor fit].
Consider `CCSCCC(NC1=CC(=O)CC(C)(C)C1)C(=O)O` (stereo not drawn), for which the cell number change is -10%. Under setting [1], the AC50 was 1.3 µM [falling, full curve, poor fit].
As to `COc1ccccc1NS(=O)(=O)c1cc([N+](=O)[O-])ccc1N/N=C/c1c(C)[nH]c2ccccc12`, the cell number change was -19.4%.
Take `CCC(C)N1CCN(C(=O)c2cc(OC)cc(OC)c2)CC1` (stereo not drawn): the cell number change was 21.3%. The AC50 under setting [1] was 4.11 µM [rising, partial curve, poor fit].
For `COc1cc(NC(=O)COc2cc(C)cc3oc(=O)c(C)c(C)c23)cc(OC)c1OC`, the cell number change was determined as 5.73%. Under setting [1], the AC50 is 4.11 µM [falling, single point].
As to `O=C(NNS(=O)(=O)c1ccc(F)cc1)c1ccc2c(c1)OCO2`, the cell number change was -18.2%. For the same compound, the AC50 under setting [2] is 0.316 µM [falling, full curve]. For the same compound, the half-maximal activity concentration (AC50) under setting [1] is 0.794 µM [falling, full curve, poor fit].
With `C[C@H](NC(=O)N1CCn2c1nc1ccccc12)C(=O)NC1CCCCC1`, the cell number change came to 26.7%.
For the compound `COc1cccc(-c2ccc(NC(=O)C3CCCN(Cc4nccn4C)C3)cc2)c1` (stereo not drawn), the cell number change was 27.3%. In addition, under setting [1], the half-maximal activity concentration (AC50) is 29.1 µM [rising, single point].
Take `Cc1ccc(CN(C)C(=O)c2cccc(S(=O)(=O)N3CCN(Cc4ccccc4)CC3)c2)o1`: the cell number change turned out to be 3%.
For `O=C(OCC(=O)c1ccc[nH]1)c1ccc([N+](=O)[O-])cc1`, the cell number change was -0.877%. Also, the concentration at half-maximal activity (AC50) under setting [2] is 0.116 µM [falling, full curve, poor fit].
For `COC(=O)C(Cc1ccc(O)cc1)NC(=O)CCNC(=O)c1ccco1` (stereo not drawn), the cell number change stood at 5.71%. For the same compound, under setting [1], the half-maximal activity concentration (AC50) is 6.51 µM [rising, single point].
Turning to `CCOC(=O)c1[nH]c2ccccc2c1NC(=S)Nc1ccccc1`, the cell number change was 5.09%. In addition, the AC50 under setting [1] is 18.4 µM [rising, single point].
As for `CC(C)(C)c1ccc(C(=O)Nc2cccc([N+](=O)[O-])c2)cc1`, the cell number change amounted to 10.5%. Moreover, under setting [1], the AC50 was 0.00517 µM [rising, full curve, poor fit].
For `O=C(c1ccccc1NS(=O)(=O)c1cccc([N+](=O)[O-])c1)N1CCOCC1`, the cell number change is -23.2%. The concentration at half-maximal activity (AC50) under setting [1] was 29.1 µM [rising, single point].
Turning to `Cc1cc(NC(=O)c2cccc([N+](=O)[O-])c2)no1`, the cell number change is 15.1%. Also, the concentration at half-maximal activity (AC50) under setting [2] is 6.51 µM [rising, single point].
For `O=C(Nc1ccccc1C(=O)Nc1ccc(Br)cn1)c1cccc([N+](=O)[O-])c1`, the cell number change is -13.5%. Moreover, under setting [1], the half-maximal activity concentration (AC50) is 4.11 µM [falling, single point].
Consider `O=C(Cc1ccccc1)N/N=C/c1ccc(S(=O)(=O)O)o1`, for which the cell number change was -19.1%. Moreover, the AC50 under setting [2] was 0.164 µM [falling, full curve, poor fit]. Also, the concentration at half-maximal activity (AC50) under setting [1] was 3.26 µM [falling, full curve, poor fit].
Regarding `COc1ccc(-c2oc(NC(=O)CCl)c(C#N)c2-c2ccc(OC)cc2)cc1`, the cell number change came out at 24.4%. In addition, under setting [1], the AC50 was 1.84 µM [rising, partial curve].

The values are drawn from PubChem BioAssay AID2685 (National Center for Advancing Translational Sciences (NCATS), 2010).
